This passage reports binding results from publication PMC5290487.

Protein sequences, listed by entry. Tags and fused reporters are not part of them. Lines headed by an entry give the natural chain unless they say otherwise; changes in a name come on top. Chains listed by the source or under a name are the forms on record and can include a tag or linker. Residues count along the entry.
UniProt P49137: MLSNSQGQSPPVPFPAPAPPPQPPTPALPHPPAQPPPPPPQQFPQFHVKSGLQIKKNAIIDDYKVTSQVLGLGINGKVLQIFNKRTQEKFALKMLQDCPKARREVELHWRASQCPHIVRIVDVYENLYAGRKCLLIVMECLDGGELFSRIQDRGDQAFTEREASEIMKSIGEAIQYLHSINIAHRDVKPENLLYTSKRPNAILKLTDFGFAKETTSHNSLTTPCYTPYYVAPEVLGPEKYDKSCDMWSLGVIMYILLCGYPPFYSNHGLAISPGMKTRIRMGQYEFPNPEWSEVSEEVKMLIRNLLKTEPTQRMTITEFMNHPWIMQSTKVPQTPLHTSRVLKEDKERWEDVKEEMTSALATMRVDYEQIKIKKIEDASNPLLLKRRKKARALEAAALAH
UniProt Q08493, residues 107-712: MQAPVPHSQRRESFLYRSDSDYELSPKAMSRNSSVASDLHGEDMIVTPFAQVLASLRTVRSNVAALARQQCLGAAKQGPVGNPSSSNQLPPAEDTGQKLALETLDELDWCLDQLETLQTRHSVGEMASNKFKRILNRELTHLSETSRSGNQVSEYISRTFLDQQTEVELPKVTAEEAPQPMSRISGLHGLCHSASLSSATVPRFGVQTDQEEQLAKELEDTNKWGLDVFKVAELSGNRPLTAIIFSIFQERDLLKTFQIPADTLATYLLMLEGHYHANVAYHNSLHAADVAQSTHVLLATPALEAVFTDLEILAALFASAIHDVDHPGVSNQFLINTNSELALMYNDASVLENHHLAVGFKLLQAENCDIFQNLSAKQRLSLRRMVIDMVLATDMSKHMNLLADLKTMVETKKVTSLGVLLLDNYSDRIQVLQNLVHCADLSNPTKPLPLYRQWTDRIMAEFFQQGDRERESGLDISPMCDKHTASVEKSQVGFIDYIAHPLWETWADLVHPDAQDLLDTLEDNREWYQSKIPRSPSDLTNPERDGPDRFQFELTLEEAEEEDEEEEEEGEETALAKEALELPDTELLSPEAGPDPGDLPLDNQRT
PDE4D9, endogenous long PDE4D isoform (Q08499-10, form named): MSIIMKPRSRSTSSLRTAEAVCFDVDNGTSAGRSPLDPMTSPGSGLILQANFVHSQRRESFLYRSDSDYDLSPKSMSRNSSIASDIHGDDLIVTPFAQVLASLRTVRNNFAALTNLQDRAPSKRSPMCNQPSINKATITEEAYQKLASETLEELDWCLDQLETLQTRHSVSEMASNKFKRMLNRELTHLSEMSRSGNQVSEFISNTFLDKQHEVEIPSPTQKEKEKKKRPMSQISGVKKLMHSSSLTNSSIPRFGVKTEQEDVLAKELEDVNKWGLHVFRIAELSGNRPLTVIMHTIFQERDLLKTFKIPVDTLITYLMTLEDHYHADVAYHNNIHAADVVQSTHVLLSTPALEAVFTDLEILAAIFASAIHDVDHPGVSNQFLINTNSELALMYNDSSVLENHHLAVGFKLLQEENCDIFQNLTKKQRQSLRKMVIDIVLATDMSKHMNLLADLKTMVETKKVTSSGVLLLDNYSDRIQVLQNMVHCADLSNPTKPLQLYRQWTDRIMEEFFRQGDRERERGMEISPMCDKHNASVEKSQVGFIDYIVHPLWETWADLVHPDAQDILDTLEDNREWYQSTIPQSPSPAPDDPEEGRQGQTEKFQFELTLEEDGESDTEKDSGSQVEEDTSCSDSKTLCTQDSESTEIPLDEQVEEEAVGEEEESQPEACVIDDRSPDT

These are yes or no findings as the source states them, for the method shown. In cells and extracts the contact can be indirect. Some entries that bind do so weakly or less than the wild type.

For this assay, the target named is MK2 (mitogen-activated protein kinase-activated protein kinase 2), endogenous in HEK293 cells (human (endogenous in HEK293)) (UniProt P49137). In words: co-IP; HEK293 lysates, endogenous proteins; immunoprecipitation with MK2 antiserum; blots with PDE4B, PDE4C and PDE4D antisera; bead-only control.
On to “PDE4B1, endogenous long PDE4B isoform (from UniProt Q07343-1 1-736) (enzyme)”, for which the binding result was “binds”.
Turning to “PDE4C2, endogenous long PDE4C isoform (from UniProt Q08493-2 1-606) (enzyme)”, the binding entry is given as “binds”.
The same measure for “PDE4D9, endogenous long PDE4D isoform (from UniProt Q08499-10 1-679) (enzyme)”: “binds”.
